Assay results as given in the supplement of paper PMC8728848.
Some of the results follow.

Columns and labels:
Assay in all cases: glycan array binding signal (z-score within array); higher = stronger binding
Settings in all cases: glycan notation: IUPAC condensed, linker removed
[1] = target: GlcNAc(b1-3)Gal(b1-4)GlcNAc(b1-6)[GlcNAc(b1-3)Gal(b1-3)]GalNAc
Method in brief: (§1)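 Negative Z-scores can be read as non-binding. The Z-score is calculated within each array and then averaged across arrays of one protein sequence at different concentrations or buffers and across linkers. Arrays, 3228 in all, were curated from the Consortium for Functional Glycomics database and kept only where the protein sequence was available.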

[2] = target: GlcNAc(b1-3)Gal(b1-4)GlcNAc(b1-6)[GlcNAc(b1-3)]Gal(b1-4)GlcNAc
Method in brief: as §1

[3] = target: GlcNAc(b1-3)GalNAc
Method in brief: as §1

[4] = target: GlcNAc(b1-3)Man
Method in brief: as §1

[5] = target: GlcNAc(b1-3)[GlcNAc(b1-4)][GlcNAc(b1-6)]GlcNAc
Method in brief: as §1

[6] = target: GlcNAc(b1-3)[GlcNAc(b1-6)]Gal(b1-4)GlcNAc
Method in brief: as §1

[7] = target: GlcNAc(b1-3)[GlcNAc(b1-6)]GalNAc
Method in brief: as §1

[8] = target: GlcNAc(b1-4)Gal(b1-4)GlcNAc
Method in brief: as §1

[9] = target: GlcNAc(b1-4)GlcNAc
Method in brief: as §1

[10] = target: GlcNAc(b1-4)GlcNAc(b1-4)GlcNAc
Method in brief: as §1

[11] = target: GlcNAc(b1-4)GlcNAc(b1-4)GlcNAc(b1-4)GlcNAc(b1-4)GlcNAc
Method in brief: as §1

[12] = target: GlcNAc(b1-4)GlcNAc(b1-4)GlcNAc(b1-4)GlcNAc(b1-4)GlcNAc(b1-4)GlcNAc
Method in brief: as §1

[13] = target: GlcNAc(b1-4)[GlcNAc(b1-6)]GalNAc
Method in brief: as §1

[14] = target: GlcNAc(b1-6)Gal(b1-4)GlcNAc
Method in brief: as §1

[15] = target: GlcNAc(b1-6)GalNAc
Method in brief: as §1

[16] = target: GlcNAc3Prop(b1-4)GlcNAc
Method in brief: as §1

[17] = target: GlcNAc6S(b1-3)Gal(b1-4)GlcNAc
Method in brief: as §1

[18] = target: Kdn(a2-3)Gal(b1-3)GalNAc
Method in brief: as §1

[19] = target: Kdn(a2-3)Gal(b1-3)GlcNAc
Method in brief: as §1

[20] = target: Kdn(a2-3)Gal(b1-4)Glc
Method in brief: as §1

[21] = target: Kdn(a2-3)Gal(b1-4)GlcNAc
Method in brief: as §1

[22] = target: Kdn(a2-3)Gal(b1-4)[Fuc(a1-3)]GlcNAc
Method in brief: as §1

[23] = target: Kdn(a2-6)Gal(b1-4)GlcNAc
Method in brief: as §1

[24] = target: Man(a1-2)Man(a1-2)Man(a1-3)Man
Method in brief: as §1

[25] = target: Man(a1-2)Man(a1-2)Man(a1-6)[Man(a1-3)]Man
Method in brief: as §1

[26] = target: Man(a1-2)Man(a1-3)Man
Method in brief: as §1

[27] = target: Man(a1-2)Man(a1-3)[Man(a1-2)Man(a1-6)]Man
Method in brief: as §1

[28] = target: Man(a1-2)Man(a1-3)[Man(a1-2)Man(a1-6)]Man(a1-6)[Man(a1-2)Man(a1-2)Man(a1-3)]Man
Method in brief: as §1

[29] = target: Man(a1-2)Man(a1-3)[Man(a1-2)Man(a1-6)]Man(a1-6)[Man(a1-2)Man(a1-2)Man(a1-3)]Man(b1-4)GlcNAc(b1-4)GlcNAc
Method in brief: as §1

[30] = target: Man(a1-2)Man(a1-3)[Man(a1-6)]Man(a1-6)[Man(a1-2)Man(a1-3)]Man(b1-4)GlcNAc(b1-4)GlcNAc
Method in brief: as §1

[31] = target: Man(a1-2)Man(a1-6)[Man(a1-3)]Man(a1-6)[Man(a1-2)Man(a1-2)Man(a1-3)]Man
Method in brief: as §1

[32] = target: Man(a1-2)Man(a1-6)[Man(a1-3)]Man(a1-6)[Man(a1-2)Man(a1-2)Man(a1-3)]Man(b1-4)GlcNAc(b1-4)GlcNAc
Method in brief: as §1

[33] = target: Man(a1-3)[Man(a1-6)]Man
Method in brief: as §1

[34] = target: Man(a1-3)[Man(a1-6)]Man(a1-6)[Man(a1-2)Man(a1-3)]Man(b1-4)GlcNAc(b1-4)GlcNAc
Method in brief: as §1

[35] = target: Man(a1-3)[Man(a1-6)]Man(a1-6)[Man(a1-3)]Man
Method in brief: as §1

[36] = target: Man(a1-3)[Man(a1-6)]Man(a1-6)[Man(a1-3)]Man(b1-4)GlcNAc(b1-4)GlcNAc
Method in brief: as §1

[37] = target: Man(a1-3)[Man(a1-6)]Man(b1-4)GlcNAc(b1-4)GlcNAc
Method in brief: as §1

[38] = target: Man(a1-3)[Man(a1-6)]Man(b1-4)GlcNAc(b1-4)[Fuc(a1-6)]GlcNAc
Method in brief: as §1

B1: Flo1 (Saccharomyces cerevisiae), P32768 (protein)
chain: SGATEACLPAGQRKSGMNINFYQYSLKDSSTYSNAAYMAYGYASKTKLGSVGGQTDISIDYNIPCVSSSGTFPCPQEDSYGNWGCKGMGACSNSQGIAYWSTDLFGFYTTPTNVTLEMTGYFLPPQTGSYTFKFATVDDSAILSVGGATAFNCCAQQQPPITSTNFTIDGIKPWGGSLPPNIEGTVYMYAGYYYPMKVVYSNAVSWGTLPISVTLPDGTTVSDDFEGYVYSFDDDLSQSNCTVPDPSNY
[1]
  glycan array binding signal (z-score): -0.164
[2]
  glycan array binding signal (z-score): -2.82
[3]
  glycan array binding signal (z-score): -0.353
[4]
  glycan array binding signal (z-score): -0.886
[5]
  glycan array binding signal (z-score): -0.36
[6]
  glycan array binding signal (z-score): -0.234
[7]
  glycan array binding signal (z-score): 0.176
[8]
  glycan array binding signal (z-score): -0.117
[9]
  glycan array binding signal (z-score): -0.236
[10]
  glycan array binding signal (z-score): -0.704
[11]
  glycan array binding signal (z-score): -0.731
[12]
  glycan array binding signal (z-score): -0.479
[13]
  glycan array binding signal (z-score): -0.024
[14]
  glycan array binding signal (z-score): -0.808
[15]
  glycan array binding signal (z-score): -0.449
[16]
  glycan array binding signal (z-score): -0.198
[17]
  glycan array binding signal (z-score): 1.56
[18]
  glycan array binding signal (z-score): 0.682
[19]
  glycan array binding signal (z-score): 0.305
[20]
  glycan array binding signal (z-score): -0.226
[21]
  glycan array binding signal (z-score): -0.081
[22]
  glycan array binding signal (z-score): -0.261
[23]
  glycan array binding signal (z-score): -0.389
[24]
  glycan array binding signal (z-score): 0.403
[25]
  glycan array binding signal (z-score): -0.348
[26]
  glycan array binding signal (z-score): 0.251
[27]
  glycan array binding signal (z-score): 0.743
[28]
  glycan array binding signal (z-score): 0.13
[29]
  glycan array binding signal (z-score): -0.031
[30]
  glycan array binding signal (z-score): 1.16
[31]
  glycan array binding signal (z-score): -0.65
[32]
  glycan array binding signal (z-score): 0.634
[33]
  glycan array binding signal (z-score): -0.463
[34]
  glycan array binding signal (z-score): -0.237
[35]
  glycan array binding signal (z-score): -0.52
[36]
  glycan array binding signal (z-score): 0.09
[37]
  glycan array binding signal (z-score): -0.334
[38]
  glycan array binding signal (z-score): 0.698
